From the supplement of paper PMC12823440, “Inhibitors supercharge kinase turnover through native proteolytic circuits” (Nature, 2025)
Where a name gives a salt, the structure may show the parent alone. The list shows a part of the results. Hit calls seldom repeat between salt and free forms of one compound.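 Kinases, fused to nanoluciferase, were expressed in K562 cells; luminescence was measured every 4 h from 2 to 18 h as percent of control (DMSO = 100%, positive control = 0%). A time point is decreased if signal falls significantly (2 sigma). Hits were called by the authors by a rule that is not shown; the count of time points alone does not decide it.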

By UniProt entry, the sequences of proteins in these tests, tags left out. Where a name states a change or a piece, a line headed by the entry shows the natural chain unless it says otherwise.
UniProt O75460: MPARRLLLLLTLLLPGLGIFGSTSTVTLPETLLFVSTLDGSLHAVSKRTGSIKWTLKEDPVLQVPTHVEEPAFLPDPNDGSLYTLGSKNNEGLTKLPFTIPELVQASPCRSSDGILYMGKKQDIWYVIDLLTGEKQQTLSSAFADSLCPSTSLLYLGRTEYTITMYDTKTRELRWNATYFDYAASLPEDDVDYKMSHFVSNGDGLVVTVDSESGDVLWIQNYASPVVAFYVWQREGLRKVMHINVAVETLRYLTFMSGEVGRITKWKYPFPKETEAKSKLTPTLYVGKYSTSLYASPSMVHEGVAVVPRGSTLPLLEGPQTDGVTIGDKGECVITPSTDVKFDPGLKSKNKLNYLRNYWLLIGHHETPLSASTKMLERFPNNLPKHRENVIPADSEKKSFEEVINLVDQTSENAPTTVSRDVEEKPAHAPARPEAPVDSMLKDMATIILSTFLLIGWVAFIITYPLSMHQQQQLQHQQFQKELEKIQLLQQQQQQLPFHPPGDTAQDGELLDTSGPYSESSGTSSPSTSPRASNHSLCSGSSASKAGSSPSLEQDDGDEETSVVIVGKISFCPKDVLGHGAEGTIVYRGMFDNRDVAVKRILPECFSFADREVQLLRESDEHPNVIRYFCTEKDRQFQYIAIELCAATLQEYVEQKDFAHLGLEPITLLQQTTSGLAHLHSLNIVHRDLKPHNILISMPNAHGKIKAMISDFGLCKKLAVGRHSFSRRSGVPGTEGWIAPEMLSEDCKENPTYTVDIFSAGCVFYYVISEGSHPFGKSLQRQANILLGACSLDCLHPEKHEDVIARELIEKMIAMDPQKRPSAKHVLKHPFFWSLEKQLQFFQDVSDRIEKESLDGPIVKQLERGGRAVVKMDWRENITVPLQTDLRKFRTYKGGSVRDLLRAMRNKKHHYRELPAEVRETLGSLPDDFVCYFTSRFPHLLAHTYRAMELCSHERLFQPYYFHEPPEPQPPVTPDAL
UniProt P11362, whole entry, looked up: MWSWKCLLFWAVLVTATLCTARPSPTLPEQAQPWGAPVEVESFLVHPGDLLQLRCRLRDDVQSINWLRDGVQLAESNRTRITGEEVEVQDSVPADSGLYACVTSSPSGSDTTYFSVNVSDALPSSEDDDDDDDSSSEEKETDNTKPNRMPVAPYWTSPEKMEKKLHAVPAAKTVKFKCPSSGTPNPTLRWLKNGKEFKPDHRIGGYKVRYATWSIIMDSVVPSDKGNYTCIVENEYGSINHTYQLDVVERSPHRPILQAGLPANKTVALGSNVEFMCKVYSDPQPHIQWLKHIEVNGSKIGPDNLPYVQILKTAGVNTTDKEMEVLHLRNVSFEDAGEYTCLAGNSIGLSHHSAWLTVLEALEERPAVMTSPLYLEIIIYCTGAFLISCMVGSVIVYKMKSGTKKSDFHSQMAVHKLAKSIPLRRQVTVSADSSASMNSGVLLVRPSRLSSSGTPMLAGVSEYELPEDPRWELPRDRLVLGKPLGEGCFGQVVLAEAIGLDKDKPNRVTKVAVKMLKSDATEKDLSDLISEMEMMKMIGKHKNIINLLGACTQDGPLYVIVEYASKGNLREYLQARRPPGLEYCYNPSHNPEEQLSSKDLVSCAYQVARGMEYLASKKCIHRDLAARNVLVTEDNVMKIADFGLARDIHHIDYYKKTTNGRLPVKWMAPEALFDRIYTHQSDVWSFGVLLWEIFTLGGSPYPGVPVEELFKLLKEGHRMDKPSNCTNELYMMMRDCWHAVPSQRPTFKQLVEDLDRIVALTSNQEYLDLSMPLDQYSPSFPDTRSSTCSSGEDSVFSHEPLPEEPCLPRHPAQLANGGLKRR
UniProt P21802, whole entry, looked up: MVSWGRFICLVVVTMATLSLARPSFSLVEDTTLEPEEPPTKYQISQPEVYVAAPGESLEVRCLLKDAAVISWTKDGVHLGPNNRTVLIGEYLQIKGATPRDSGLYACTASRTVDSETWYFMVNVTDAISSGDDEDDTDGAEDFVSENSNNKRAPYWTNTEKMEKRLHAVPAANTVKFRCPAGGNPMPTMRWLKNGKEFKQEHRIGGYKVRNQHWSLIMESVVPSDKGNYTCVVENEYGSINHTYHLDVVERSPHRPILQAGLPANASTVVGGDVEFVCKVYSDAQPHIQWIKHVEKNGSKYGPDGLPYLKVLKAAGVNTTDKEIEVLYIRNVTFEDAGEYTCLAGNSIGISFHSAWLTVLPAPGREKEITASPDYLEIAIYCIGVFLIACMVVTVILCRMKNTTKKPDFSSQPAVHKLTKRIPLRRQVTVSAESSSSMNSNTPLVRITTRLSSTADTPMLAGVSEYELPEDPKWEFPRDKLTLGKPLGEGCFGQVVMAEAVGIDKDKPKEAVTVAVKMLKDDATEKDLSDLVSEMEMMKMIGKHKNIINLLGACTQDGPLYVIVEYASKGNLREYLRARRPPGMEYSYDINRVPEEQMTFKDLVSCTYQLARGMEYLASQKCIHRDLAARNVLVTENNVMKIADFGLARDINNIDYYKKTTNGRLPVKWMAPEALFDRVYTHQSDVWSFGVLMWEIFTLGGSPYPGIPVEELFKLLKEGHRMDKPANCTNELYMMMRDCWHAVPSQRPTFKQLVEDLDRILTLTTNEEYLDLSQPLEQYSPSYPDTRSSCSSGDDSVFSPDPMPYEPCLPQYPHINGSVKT
UniProt P22607, whole entry, looked up: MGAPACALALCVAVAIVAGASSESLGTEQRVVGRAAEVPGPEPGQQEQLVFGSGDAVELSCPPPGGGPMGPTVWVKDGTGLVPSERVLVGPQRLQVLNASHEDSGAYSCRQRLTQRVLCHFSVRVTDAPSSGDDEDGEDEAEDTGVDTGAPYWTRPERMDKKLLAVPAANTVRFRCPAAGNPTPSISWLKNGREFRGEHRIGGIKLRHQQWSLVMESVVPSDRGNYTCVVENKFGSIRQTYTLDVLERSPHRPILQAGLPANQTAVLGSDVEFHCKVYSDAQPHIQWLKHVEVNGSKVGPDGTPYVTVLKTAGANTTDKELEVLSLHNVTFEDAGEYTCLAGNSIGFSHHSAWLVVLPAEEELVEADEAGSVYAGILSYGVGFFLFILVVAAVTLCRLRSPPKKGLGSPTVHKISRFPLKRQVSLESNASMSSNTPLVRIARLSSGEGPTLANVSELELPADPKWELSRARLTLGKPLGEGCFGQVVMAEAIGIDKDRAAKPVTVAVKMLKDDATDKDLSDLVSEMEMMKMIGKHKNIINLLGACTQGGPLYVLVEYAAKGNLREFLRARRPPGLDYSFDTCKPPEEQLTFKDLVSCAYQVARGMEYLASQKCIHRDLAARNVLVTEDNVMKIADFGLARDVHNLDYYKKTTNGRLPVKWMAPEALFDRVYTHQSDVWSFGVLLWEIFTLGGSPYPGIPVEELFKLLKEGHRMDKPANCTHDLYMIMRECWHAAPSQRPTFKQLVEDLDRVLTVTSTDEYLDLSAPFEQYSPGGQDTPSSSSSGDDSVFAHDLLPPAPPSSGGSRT
UniProt P36888, whole entry: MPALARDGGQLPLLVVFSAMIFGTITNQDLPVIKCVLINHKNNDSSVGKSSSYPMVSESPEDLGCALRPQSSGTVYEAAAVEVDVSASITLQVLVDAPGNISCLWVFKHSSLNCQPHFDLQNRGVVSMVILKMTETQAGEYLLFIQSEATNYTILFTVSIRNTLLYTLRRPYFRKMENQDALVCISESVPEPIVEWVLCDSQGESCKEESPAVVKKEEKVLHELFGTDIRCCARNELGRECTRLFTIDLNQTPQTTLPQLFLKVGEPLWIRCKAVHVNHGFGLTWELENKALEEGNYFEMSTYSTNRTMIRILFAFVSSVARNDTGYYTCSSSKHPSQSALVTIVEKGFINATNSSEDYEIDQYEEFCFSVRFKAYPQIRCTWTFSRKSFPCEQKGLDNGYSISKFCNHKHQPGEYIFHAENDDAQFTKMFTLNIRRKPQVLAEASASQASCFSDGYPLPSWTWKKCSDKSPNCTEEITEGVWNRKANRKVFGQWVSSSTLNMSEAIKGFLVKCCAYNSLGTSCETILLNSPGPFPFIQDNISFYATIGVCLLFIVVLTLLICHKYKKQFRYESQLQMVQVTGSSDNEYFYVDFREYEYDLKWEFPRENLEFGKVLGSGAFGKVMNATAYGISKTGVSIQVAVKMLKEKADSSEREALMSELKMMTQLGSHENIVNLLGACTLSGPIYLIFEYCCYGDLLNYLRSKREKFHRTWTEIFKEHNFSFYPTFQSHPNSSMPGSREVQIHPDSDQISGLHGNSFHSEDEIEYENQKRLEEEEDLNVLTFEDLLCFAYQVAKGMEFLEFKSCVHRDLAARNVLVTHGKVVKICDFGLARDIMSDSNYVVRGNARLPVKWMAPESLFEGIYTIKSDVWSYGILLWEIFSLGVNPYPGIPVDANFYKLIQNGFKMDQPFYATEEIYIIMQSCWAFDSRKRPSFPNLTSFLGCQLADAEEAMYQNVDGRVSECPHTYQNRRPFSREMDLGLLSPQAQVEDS
UniProt P06241, whole entry, looked up: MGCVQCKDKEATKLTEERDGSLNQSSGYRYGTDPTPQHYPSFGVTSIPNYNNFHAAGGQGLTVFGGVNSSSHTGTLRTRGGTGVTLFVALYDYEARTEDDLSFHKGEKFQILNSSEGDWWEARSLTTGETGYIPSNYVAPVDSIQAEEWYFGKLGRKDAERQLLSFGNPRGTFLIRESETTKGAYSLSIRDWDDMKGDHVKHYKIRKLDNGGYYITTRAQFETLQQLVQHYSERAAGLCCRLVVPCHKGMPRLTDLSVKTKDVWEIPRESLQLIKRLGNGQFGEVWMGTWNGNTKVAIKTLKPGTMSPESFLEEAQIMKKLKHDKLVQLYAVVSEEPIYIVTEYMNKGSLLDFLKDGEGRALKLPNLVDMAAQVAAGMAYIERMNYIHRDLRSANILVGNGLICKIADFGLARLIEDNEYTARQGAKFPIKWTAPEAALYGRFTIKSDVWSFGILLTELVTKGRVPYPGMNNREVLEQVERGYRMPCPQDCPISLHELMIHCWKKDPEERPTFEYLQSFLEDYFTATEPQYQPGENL
UniProt P14616: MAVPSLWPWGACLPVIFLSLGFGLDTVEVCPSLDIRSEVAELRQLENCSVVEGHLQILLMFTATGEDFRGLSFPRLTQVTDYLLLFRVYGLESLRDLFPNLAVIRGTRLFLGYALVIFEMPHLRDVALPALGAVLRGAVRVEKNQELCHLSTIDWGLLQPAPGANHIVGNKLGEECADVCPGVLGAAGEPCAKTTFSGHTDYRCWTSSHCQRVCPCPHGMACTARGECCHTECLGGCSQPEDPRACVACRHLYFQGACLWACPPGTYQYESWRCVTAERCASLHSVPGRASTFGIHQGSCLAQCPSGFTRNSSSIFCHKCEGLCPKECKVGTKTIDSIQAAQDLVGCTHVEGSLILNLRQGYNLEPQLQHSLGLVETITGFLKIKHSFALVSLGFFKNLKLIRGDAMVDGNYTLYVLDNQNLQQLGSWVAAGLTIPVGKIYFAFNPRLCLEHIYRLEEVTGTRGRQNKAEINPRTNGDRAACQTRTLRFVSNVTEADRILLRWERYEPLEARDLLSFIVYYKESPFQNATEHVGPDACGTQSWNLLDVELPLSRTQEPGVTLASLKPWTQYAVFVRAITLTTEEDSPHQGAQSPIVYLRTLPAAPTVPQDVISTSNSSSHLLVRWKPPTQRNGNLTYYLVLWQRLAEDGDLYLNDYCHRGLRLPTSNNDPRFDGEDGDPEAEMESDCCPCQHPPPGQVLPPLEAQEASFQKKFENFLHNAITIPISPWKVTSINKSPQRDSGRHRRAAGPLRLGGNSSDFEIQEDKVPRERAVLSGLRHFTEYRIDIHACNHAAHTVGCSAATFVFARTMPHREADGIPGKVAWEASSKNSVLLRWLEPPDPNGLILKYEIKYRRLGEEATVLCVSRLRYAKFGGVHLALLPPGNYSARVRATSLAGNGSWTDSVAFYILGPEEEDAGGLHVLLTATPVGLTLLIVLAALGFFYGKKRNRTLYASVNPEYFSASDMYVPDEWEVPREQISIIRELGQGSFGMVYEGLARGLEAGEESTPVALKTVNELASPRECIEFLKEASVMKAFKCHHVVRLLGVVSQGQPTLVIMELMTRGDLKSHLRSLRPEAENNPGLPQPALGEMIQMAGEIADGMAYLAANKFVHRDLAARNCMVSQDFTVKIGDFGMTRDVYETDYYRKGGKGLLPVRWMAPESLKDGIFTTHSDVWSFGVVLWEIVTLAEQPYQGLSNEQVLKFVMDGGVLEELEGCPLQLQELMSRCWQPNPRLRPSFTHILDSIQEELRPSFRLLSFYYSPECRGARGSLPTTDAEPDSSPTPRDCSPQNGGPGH

What was measured:
Assay in all cases: kinase-Nluc reporter destabilization hit call (1 = scored as downregulated) (binary); higher = compound decreases kinase abundance
Conditions in all cases: K562; 2-18 h
ERN1 = ERN1 (UniProt O75460)
FGFR1 = FGFR1 (UniProt P11362)
FGFR2 = FGFR2 (UniProt P21802)
FGFR3 = FGFR3 (UniProt P22607)
FGR = FGR (UniProt P09769)
FLT3 = FLT3 (UniProt P36888)
FYN = FYN (UniProt P06241)
GSK3A = GSK3A (UniProt P49840)
HER2 = HER2 (UniProt P04626)
INSRR = INSRR (UniProt P14616)

Measured: kinase-Nluc reporter destabilization hit call

Cc1cc(Nc2ncnc3ccc(NC4=NC(C)(C)CO4)cc23)ccc1Oc1ccn2ncnc2c1 [Tucatinib] (2.5 µM)
inactive: ERN1 = 0 | FGFR1 = 0 | FGFR2 = 0 | FGFR3 = 0 | FGR 0 | FLT3 = 0 | FYN 0 | GSK3A 0 | HER2 = 0 | INSRR 0

CN1CCN(c2cnc3c(C4CCN(C(=O)c5ccc(OC(F)(F)F)cc5N)CC4)ncnc3c2)CC1 (10 µM)
inactive: ERN1 = 0 | FGFR1 = 0 | FGFR2 = 0 | FGFR3 = 0 | FGR 0 | FLT3 = 0 | FYN 0 | GSK3A 0 | HER2 = 0 | INSRR 0

CN1CCN(c2cccc(Nc3nc4c(-c5ccc(S(C)(=O)=O)cc5)cccn4n3)c2)CC1 (10 µM)
inactive: ERN1 = 0 | FGFR1 = 0 | FGFR2 = 0 | FGFR3 = 0 | FGR 0 | FLT3 = 0 | FYN 0 | GSK3A 0 | HER2 = 0 | INSRR 0

C[C@@H]1CCN(C(=O)CC#N)C[C@@H]1N(C)c1ncnc2[nH]ccc12 [Tofacitinib (citrate)] (10 µM)
inactive: ERN1 = 0 | FGFR1 = 0 | FGFR2 = 0 | FGFR3 = 0 | FGR 0 | FLT3 = 0 | FYN 0 | GSK3A 0 | HER2 = 0 | INSRR 0

CN1C(=O)N[C@H](Cc2c[nH]c3c(Cl)cccc23)C1=O [Necrostatin 2] (10 µM)
inactive: ERN1 = 0 | FGFR1 = 0 | FGFR2 = 0 | FGFR3 = 0 | FGR 0 | FLT3 = 0 | FYN 0 | GSK3A 0 | HER2 = 0 | INSRR 0

O=C1NC(=O)/C(=C/c2ccc3nccnc3c2)S1 (10 µM)
inactive: ERN1 = 0 | FGFR1 = 0 | FGFR2 = 0 | FGFR3 = 0 | FGR 0 | FLT3 = 0 | FYN 0 | GSK3A 0 | HER2 = 0 | INSRR 0

NCCNS(=O)(=O)c1cccc2c(Cl)cccc12 [A-3 (hydrochloride)] (10 µM)
inactive: ERN1 = 0 | FGFR1 = 0 | FGFR2 = 0 | FGFR3 = 0 | FGR 0 | FLT3 = 0 | FYN 0 | GSK3A 0 | HER2 = 0 | INSRR 0

CCc1c(C(=O)NNC(=O)C(O)c2cc(F)cc(F)c2)ccc(O)c1C (centres undefined) (10 µM)
inactive: ERN1 = 0 | FGFR1 = 0 | FGFR2 = 0 | FGFR3 = 0 | FGR 0 | FLT3 = 0 | FYN 0 | GSK3A 0 | HER2 = 0 | INSRR 0

Nc1ccc(-c2cnc(N)c(-c3ccc(Cl)cc3)c2)cn1 (10 µM)
inactive: ERN1 = 0 | FGFR1 = 0 | FGFR2 = 0 | FGFR3 = 0 | FGR 0 | FLT3 = 0 | FYN 0 | GSK3A 0 | HER2 = 0 | INSRR 0

COc1cc(/C=C/C(=O)NCC(O)c2ccc(O)cc2)ccc1O (centres undefined) [N-Feruloyloctopamine] (2.5 µM)
inactive: ERN1 = 0 | FGFR1 = 0 | FGFR2 = 0 | FGFR3 = 0 | FGR 0 | FLT3 = 0 | FYN 0 | GSK3A 0 | HER2 = 0 | INSRR 0

NC(=O)c1nnc(N[C@@H]2CCCC[C@@H]2N)nc1Nc1cccc2cc[nH]c12 (10 µM)
inactive: ERN1 = 0 | FGFR1 = 0 | FGFR2 = 0 | FGFR3 = 0 | FGR 0 | FLT3 = 0 | FYN 0 | GSK3A 0 | HER2 = 0 | INSRR 0

COc1ccc(-c2ccc3c(N4CCOCC4)nc(N4C[C@@H](C)O[C@@H](C)C4)nc3n2)cc1CO (2.5 µM)
inactive: ERN1 = 0 | FGFR1 = 0 | FGFR2 = 0 | FGFR3 = 0 | FGR 0 | FLT3 = 0 | FYN 0 | GSK3A 0 | HER2 = 0 | INSRR 0

CCN1CCN(Cc2ccc(Nc3ncc(F)c(-c4cc(F)c5nc(C)n(C(C)C)c5c4)n3)nc2)CC1 [Abemaciclib (methanesulfonate)] (10 µM)
inactive: ERN1 = 0 | FGFR1 = 0 | FGFR2 = 0 | FGFR3 = 0 | FGR 0 | FLT3 = 0 | FYN 0 | GSK3A 0 | HER2 = 0 | INSRR 0

C=CC(=O)Nc1cc(C)ccc1Nc1nc(Nc2cc(OC)ncc2C)ncc1C(F)(F)F (10 µM)
inactive: ERN1 = 0 | FGFR1 = 0 | FGFR2 = 0 | FGFR3 = 0 | FGR 0 | FLT3 = 0 | FYN 0 | GSK3A 0 | HER2 = 0 | INSRR 0

CCS(=O)(=O)Nc1ccc2[nH]c(O)c(C(=Nc3ccc(CN4CCCCC4)cc3)c3ccccc3)c2c1 [Hesperadin] (2.5 µM)
inactive: ERN1 = 0 | FGFR1 = 0 | FGFR2 = 0 | FGFR3 = 0 | FGR 0 | FLT3 = 0 | FYN 0 | GSK3A 0 | HER2 = 0 | INSRR 0

C=CC(=O)Nc1cccc(Nc2nc(Nc3ccc(NC4CN(CCF)C4)cc3OC)ncc2C(F)(F)F)c1 (2.5 µM)
inactive: ERN1 = 0 | FGFR1 = 0 | FGFR2 = 0 | FGFR3 = 0 | FGR 0 | FLT3 = 0 | FYN 0 | GSK3A 0 | HER2 = 0 | INSRR 0

O=C([O-])c1cc2ccccc2c(Cc2c(O)c(C(=O)[O-])cc3ccccc23)c1O.[Na+].[Na+] [Pamoic acid (disodium)] (10 µM)
inactive: ERN1 = 0 | FGFR1 = 0 | FGFR2 = 0 | FGFR3 = 0 | FGR 0 | FLT3 = 0 | FYN 0 | GSK3A 0 | HER2 = 0 | INSRR 0

CCN1CCN(Cc2ccc(-c3cc4c(N[C@H](C)c5ccccc5)ncnc4[nH]3)cc2)CC1 (2.5 µM)
inactive: ERN1 = 0 | FGFR1 = 0 | FGFR2 = 0 | FGFR3 = 0 | FGR 0 | FLT3 = 0 | FYN 0 | GSK3A 0 | HER2 = 0 | INSRR 0

O=C(NCCN1CCOCC1)c1cc2c(Oc3ccc(NC(=O)C4(C(=O)Nc5ccc(F)cc5)CC4)cc3)ccnc2[nH]1 [Tyrosine kinase inhibitor] (10 µM)
inactive: ERN1 = 0 | FGFR1 = 0 | FGFR2 = 0 | FGFR3 = 0 | FGR 0 | FLT3 = 0 | FYN 0 | GSK3A 0 | HER2 = 0 | INSRR 0

COc1ncc(Cl)cc1S(=O)(=O)Nc1ccc(F)c(C#Cc2cnc(N)nc2)c1F (2.5 µM)
inactive: ERN1 = 0 | FGFR1 = 0 | FGFR2 = 0 | FGFR3 = 0 | FGR 0 | FLT3 = 0 | FYN 0 | GSK3A 0 | HER2 = 0 | INSRR 0

Cc1cc2ncc(-c3ccc(O)c(O)c3)nc2cc1C [Tyrphostin AG1433] (10 µM)
inactive: ERN1 = 0 | FGFR1 = 0 | FGFR2 = 0 | FGFR3 = 0 | FGR 0 | FLT3 = 0 | FYN 0 | GSK3A 0 | HER2 = 0 | INSRR 0

Oc1cc2c(cc1O)C(Cc1cccc3ccccc13)NCC2 (centres undefined) (10 µM)
inactive: ERN1 = 0 | FGFR1 = 0 | FGFR2 = 0 | FGFR3 = 0 | FGR 0 | FLT3 = 0 | FYN 0 | GSK3A 0 | HER2 = 0 | INSRR 0

N#Cc1c(C2CCNCC2)cc(-c2c(O)cccc2OCC2CC2)nc1N [ACHP (Hydrochloride)] (10 µM)
inactive: ERN1 = 0 | FGFR1 = 0 | FGFR2 = 0 | FGFR3 = 0 | FGR 0 | FLT3 = 0 | FYN 0 | GSK3A 0 | HER2 = 0 | INSRR 0

Looked up by compound from the list above, 2 records:
N#Cc1c(C2CCNCC2)cc(-c2c(O)cccc2OCC2CC2)nc1N [ACHP (Hydrochloride)] (10 µM)
inactive: ERN1 = 0 | FGFR1 = 0 | FGFR2 = 0 | FGFR3 = 0 | FGR 0 | FLT3 = 0 | FYN 0 | GSK3A 0 | HER2 = 0 | INSRR 0

O=C(NCCN1CCOCC1)c1cc2c(Oc3ccc(NC(=O)C4(C(=O)Nc5ccc(F)cc5)CC4)cc3)ccnc2[nH]1 [Tyrosine kinase inhibitor] (10 µM)
inactive: ERN1 = 0 | FGFR1 = 0 | FGFR2 = 0 | FGFR3 = 0 | FGR 0 | FLT3 = 0 | FYN 0 | GSK3A 0 | HER2 = 0 | INSRR 0

More results:

COCCNc1nc2ccc(C#CC3(O)CCCCC3)cc2n1-c1ccnc(N)n1 (10 µM)
inactive: ERN1 = 0 | FGFR1 = 0 | FGFR2 = 0 | FGFR3 = 0 | FGR 0 | FLT3 = 0 | FYN 0 | GSK3A 0 | HER2 = 0 | INSRR 0

CC(=O)NC1CC(n2cnc(NC(=O)Cc3ccc4ccccc4c3)c2)C1 (centres undefined) (10 µM)
inactive: ERN1 = 0 | FGFR1 = 0 | FGFR2 = 0 | FGFR3 = 0 | FGR 0 | FLT3 = 0 | FYN 0 | GSK3A 0 | HER2 = 0 | INSRR 0

C[C@@]1(c2ncncc2F)NC(=O)c2cc(-c3cn[nH]c3)ccc21 (10 µM)
inactive: ERN1 = 0 | FGFR1 = 0 | FGFR2 = 0 | FGFR3 = 0 | FGR 0 | FLT3 = 0 | FYN 0 | GSK3A 0 | HER2 = 0 | INSRR 0

COc1cccc(OC)c1C(=O)OCc1cc(O)ccc1O[C@@H]1O[C@H](CO)[C@@H](O)[C@H](O)[C@H]1O [Curculigoside] (10 µM)
inactive: ERN1 = 0 | FGFR1 = 0 | FGFR2 = 0 | FGFR3 = 0 | FGR 0 | FLT3 = 0 | FYN 0 | GSK3A 0 | HER2 = 0 | INSRR 0

O=C1Nc2ccc(C(=O)c3ccco3)cc2C1=Cc1cc(Cl)c(O)c(Cl)c1 (2.5 µM)
inactive: ERN1 = 0 | FGFR1 = 0 | FGFR2 = 0 | FGFR3 = 0 | FGR 0 | FLT3 = 0 | FYN 0 | GSK3A 0 | HER2 = 0 | INSRR 0

COc1ccccc1-c1cc(Nc2cccc(CS(N)(=O)=O)c2)ncn1 (10 µM)
inactive: ERN1 = 0 | FGFR1 = 0 | FGFR2 = 0 | FGFR3 = 0 | FGR 0 | FLT3 = 0 | FYN 0 | GSK3A 0 | HER2 = 0 | INSRR 0

COc1cc2c(N3CCN(C(=O)Nc4ccc(OC(C)C)cc4)CC3)ncnc2cc1OCCCN1CCCCC1 [Tandutinib] (10 µM)
inactive: ERN1 = 0 | FGFR1 = 0 | FGFR2 = 0 | FGFR3 = 0 | FGR 0 | FYN 0 | GSK3A 0 | HER2 = 0 | INSRR 0
